In doi:10.1101/2021.02.14.429938:
Results are given in words; binding and its absence hold for the method and conditions named. In cells and extracts the contact can be indirect. Some entries that bind do so weakly or less than the wild type. Tags and fused reporters may be left off the sequences shown.

Biological target: T1, Stag1 (mouse (endogenous in E14 ES cells)), Q9D3E6
T1 chain: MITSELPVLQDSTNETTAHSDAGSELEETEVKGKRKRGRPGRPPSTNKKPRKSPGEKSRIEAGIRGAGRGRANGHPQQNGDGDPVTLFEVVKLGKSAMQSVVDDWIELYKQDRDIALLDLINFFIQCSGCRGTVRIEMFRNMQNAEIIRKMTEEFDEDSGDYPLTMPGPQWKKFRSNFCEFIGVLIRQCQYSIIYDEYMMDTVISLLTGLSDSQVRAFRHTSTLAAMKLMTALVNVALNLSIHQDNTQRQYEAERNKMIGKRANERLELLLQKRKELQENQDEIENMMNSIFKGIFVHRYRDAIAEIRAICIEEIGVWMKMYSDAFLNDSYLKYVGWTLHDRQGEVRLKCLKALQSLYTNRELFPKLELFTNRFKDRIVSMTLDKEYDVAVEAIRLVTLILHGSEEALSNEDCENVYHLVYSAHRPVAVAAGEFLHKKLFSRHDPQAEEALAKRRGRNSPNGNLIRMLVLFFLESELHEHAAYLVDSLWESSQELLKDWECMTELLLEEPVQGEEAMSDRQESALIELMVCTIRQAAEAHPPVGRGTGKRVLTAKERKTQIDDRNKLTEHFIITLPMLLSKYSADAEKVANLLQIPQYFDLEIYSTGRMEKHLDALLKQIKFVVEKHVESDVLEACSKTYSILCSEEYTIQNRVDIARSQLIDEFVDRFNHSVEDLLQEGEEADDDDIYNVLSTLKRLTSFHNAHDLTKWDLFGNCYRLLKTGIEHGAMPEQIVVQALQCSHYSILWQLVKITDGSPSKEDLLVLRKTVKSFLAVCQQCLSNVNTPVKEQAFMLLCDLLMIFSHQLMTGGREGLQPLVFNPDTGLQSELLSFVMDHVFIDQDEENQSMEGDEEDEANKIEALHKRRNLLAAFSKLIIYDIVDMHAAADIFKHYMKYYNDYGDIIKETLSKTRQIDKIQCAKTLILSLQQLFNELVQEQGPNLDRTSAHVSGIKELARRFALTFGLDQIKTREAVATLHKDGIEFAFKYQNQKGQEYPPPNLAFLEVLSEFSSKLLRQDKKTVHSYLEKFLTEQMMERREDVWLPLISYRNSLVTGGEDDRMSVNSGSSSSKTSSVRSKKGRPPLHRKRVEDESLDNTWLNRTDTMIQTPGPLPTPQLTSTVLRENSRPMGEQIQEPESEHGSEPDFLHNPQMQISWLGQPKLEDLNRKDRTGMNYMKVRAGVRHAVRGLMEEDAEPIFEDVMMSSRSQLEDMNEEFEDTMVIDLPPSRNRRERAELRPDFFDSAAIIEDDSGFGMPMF
Assay: co-IP
Conditions: remark: other sources report otherwise

B1: Smc3, Q9CW03 1-1217 (protein)
chain: MYIKQVIIQGFRSYRDQTIVDPFSSKHNVIVGRNGSGKSNFFYAIQFVLSDEFSHLRPEQRLALLHEGTGPRVISAFVEIIFDNSDNRLPIDKEEVSLRRVIGAKKDQYFLDKKMVTKNDVMNLLESAGFSRSNPYYIVKQGKINQMATAPDSQRLKLLREVAGTRVYDERKEESISLMKETEGKREKINELLKYIEERLHTLEEEKEELAQYQKWDKMRRALEYTIYNQELNETRAKLDELSAKRETSGEKSRQLRDAQQDARDKMEDIERQVRELKTKISAMKEEKEQLSAERQEQIKQRTKLELKAKDLQDELAGNSEQRKRLLKERQKLLEKIEEKQKELAETEPKFNSVKEKEERGIARLAQATQERTDLYAKQGRGSQFTSKEERDKWIKKELKSLDQAINDKKRQIAAIHKDLEDTEANKEKNLEQYNKLDQDLNEVKARVEELDRKYYEVKNKKDELQSERNYLWREENAEQQALAAKREDLEKKQQLLRAATGKAILNGIDSINKVLEHFRRKGINQHVQNGYHGIVMNNFECEPAFYTCVEVTAGNRLFYHIVDSDEVSTKILMEFNKMNLPGEVTFLPLNKLDVRDTAYPETNDAIPMISKLRYNPRFDKAFKHVFGKTLICRSMEVSTQLARAFTMDCITLEGDQVSHRGALTGGYYDTRKSRLELQKDVRKAEEELGELEAKLNENLRRNIERINNEIDQLMNQMQQIETQQRKFKASRDSILSEMKMLKEKRQQSEKTFMPKQRSLQSLEASLHAMESTRESLKAELGTDLLSQLSLEDQKRVDALNDEIRQLQQENRQLLNERIKLEGIITRVETYLNENLRKRLDQVEQELNELRETEGGTVLTATTSELEAINKRVKDTMARSEDLDNSIDKTEAGIKELQKSMERWKNMEKEHMDAINHDTKELEKMTNRQGMLLKKKEECMKKIRELGSLPQEAFEKYQTLSLKQLFRKLEQCNTELKKYSHVNKKALDQFVNFSEQKEKLIKRQEELDRGYKSIMELMNVLELRKYEAIQLTFKQVSKNFSEVFQKLVPGGKATLVMKKGDVEGSQSQDEGEGSGESERGSGSQSSVPSVDQFTGVGIRVSFTGKQGEMREMQQLSGGQKSLVALALIFAIQKCDPAPFYLFDEIDQALDAQHRKAVSDMIMELAVHAQFITTTFRPELLESADKFYGVKFRNKVSHIDVITAEMAKDFVEDDTTHG
binding: binds
